# In PubChem BioAssay AID2685 (National Center for Advancing Translational Sciences (NCATS), 2010):
# The other results are listed elsewhere or left out. The main result of the screen is listed elsewhere. These columns were measured beside it and carry no call. Most of these compounds were active or inconclusive in the main read-out, so they are no random draw. Words in brackets tell the shape of the fitted curve; partial curves, single points and poor fits give uncertain potencies.
# Test: qHTS Assay for Lipid Storage Modulators in Drosophila S3 Cells;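 on cell number change: cells counted by Cell Tracker Red CMTPX staining in the red channel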
# Conditions: BODIPY lipid droplet fluorescence, 18-24 h; for cell number change: measured here: cell count max response, cells fed with added oleic acid
# How it was run: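 Drosophila S3 cells got compounds at several concentrations plus oleic acid (400 uM solution). Laser-scanning cytometry with 488 nm excitation read lipid droplets at 500-530 nm and cells at 575-640 nm. Percent activity was relative to 20 uM Triacsin C.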
# [1] = measured here: cell number channel AC50, cells fed with added oleic acid
# [2] = measured here: lipid fluorescence (Fed channel) AC50, cells fed with added oleic acid
Compound,cell number change,AC50 [1],AC50 [2]
COC(=O)c1ccccc1S(=O)(=O)NNC(=O)C1COc2ccccc2O1 (stereo not given),4.11%,"5.8 µM [falling, single point]",
CCCCC(=O)OCc1c(-c2cccc(OC)c2)ncc2ccccc12,-9.27%,,"0.116 µM [rising, full curve, poor fit]"
CS(=O)(=O)N(CCc1ccccc1)CC(=O)NCc1ccc2c(c1)OCO2,61.8%,"10.3 µM [rising, partial curve]","23.1 µM [rising, partial curve]"
O=C(CN(CCc1ccccc1)S(=O)(=O)c1ccc(Cl)cc1)N/N=C/c1ccc2c(c1)OCO2,-4.36%,,"1.3 µM [rising, full curve, poor fit]"
O=C(NCC1CCCO1)c1c(O)nc2sccn2c1=O (stereo not given),-3.31%,,"6.51 µM [rising, single point]"
COc1cc2c3c(c1OC)C1(C=CC(=NO)C=C1)CC3N(C(C)=O)CC2 (stereo not given),-15.1%,"0.103 µM [falling, full curve, poor fit]",
O=C(CN1CCCCCC1)Nc1cccc([N+](=O)[O-])c1,-34.5%,"2.06 µM [falling, single point]",
O=C(NCCN1CCCC1)C(c1ccccc1)c1ccccc1,-43.8%,"32.6 µM [falling, partial curve]","0.13 µM [falling, full curve, poor fit]"
COc1cccc(N(CC(=O)NCc2ccccc2)C(=O)CCC(=O)Nc2nccs2)c1,173%,"29.1 µM [rising, single point]",
COc1ccc(N2CCN(c3oc(-c4ccccc4OC)nc3C#N)CC2)cc1,30.2%,"29.1 µM [rising, single point]",
O=C(c1ccncc1)N(Cc1ccccc1)Cc1nc2ccccc2c(=O)[nH]1,8.47%,,"1.84 µM [falling, partial curve]"
COc1ccccc1CNC(=O)CCNC(=O)c1ccco1,,"0.82 µM [rising, single point]","6.51 µM [rising, single point]"
C=CC[n+]1c(-c2ccc(OC)c(OC)c2)csc1NNC(=O)Nc1ccccc1,-8.62%,"4.61 µM [rising, single point]","4.61 µM [rising, partial curve]"
O=C(NNC(=O)C(O)c1ccccc1)NC1CCCCC1 (stereo not given),-10.3%,,
COC(=O)C1CCN(C(=O)COC(=O)C2CCN(S(=O)(=O)c3c(Cl)cccc3Cl)CC2)CC1,1.26%,,"0.13 µM [falling, full curve, poor fit]"
COc1ccc(OCCOCCN2CCN(C)CC2)cc1,8.4%,,"29.1 µM [rising, single point]"
CCN(CC(=O)Nc1cc(Cl)ccc1C)C(=O)CCS(=O)(=O)c1ccc(Cl)cc1,23.7%,,
Clc1cccc(N=C2NN=C(c3ccc4c(c3)OCCO4)CS2)c1,-22.7%,,
CCCCNC(=O)Cn1nc(C)c(S(=O)(=O)N2CCOCC2)c1C,21.4%,"0.731 µM [falling, single point]",
Cc1ccccc1NC(=O)COC(=O)CN1C(=O)NC(C)(C)C1=O,35.5%,"29.1 µM [rising, single point]",

Compound,cell number change,AC50 [1],AC50 [2]
CCN(CC)c1ccc(NC(=O)c2ccc(=O)[nH]c2)cc1S(=O)(=O)Nc1ccccc1OC,-22.9%,,"2.91 µM [rising, full curve, poor fit]"
CC(C)NC(=O)CSc1nc(N)c(NC(=O)c2ccccc2F)c(=O)[nH]1,-5.19%,"5.17 µM [falling, partial curve, poor fit]","32.6 µM [rising, single point]"
Cc1ccc(C)c(S(=O)(=O)NCc2ccc(C(=O)N3CCOCC3)cc2)c1,0.867%,,"29.1 µM [falling, single point]"
COc1ccc(Cn2c(=O)[nH]c3cc(C(=O)N4CCN(c5ccc(C(C)=O)cc5)CC4)ccc3c2=O)cc1,4.17%,"5.8 µM [rising, partial curve]",
O=C(CN(C(=O)CNC(=O)c1ccco1)c1ccc(Cl)c(Cl)c1)NC1CCCCC1,-18.5%,,
COCCn1c(C)cc(C(=O)Cn2nc(C(=O)O)c3ccccc3c2=O)c1C,,"0.651 µM [rising, single point]",
CC1(C)CC(NC(=S)NCc2ccc3c(c2)OCO3)CC(C)(C)N1,-20.8%,"0.164 µM [falling, full curve, poor fit]","10.3 µM [falling, single point]"
Cc1ccccc1CC(=O)Nc1cccnc1,-17%,,"6.51 µM [rising, single point]"
CCOc1cc(/C=N/NC(=O)CSc2cccc3cccnc23)ccc1O,24.2%,,
Cc1nc2ccc(C(=O)Nc3cccc([N+](=O)[O-])c3)cc2s1,,"6.51 µM [falling, single point]",
CNc1oc(-c2ccc(Cl)cc2)nc1P(=O)(c1ccccc1)c1ccccc1,-35.2%,"29.1 µM [falling, single point]","29.1 µM [falling, single point]"
COC(=O)c1c(C)[nH]c(C(=O)/C=C/c2ccccc2Cl)c1C,14.4%,,"29.1 µM [rising, single point]"
Cc1noc(C)c1C(=O)Nc1ccc(-c2nnc3n2CCCCC3)cc1,-0.551%,,"0.731 µM [falling, full curve, poor fit]"
CC(C)CN(C(=O)CSc1nnc2ccccn12)c1c(N)n(CC(C)C)c(=O)[nH]c1=O,63.7%,"16.4 µM [rising, partial curve]",
CCOc1ccc(N2C(=O)c3ccccc3NC2(C)CC)cc1 (stereo not given),-2.67%,"0.731 µM [falling, single point]","0.651 µM [falling, single point]"
CC1(C)CC2CC(C)(CN2C(=O)c2cc(-c3ccc(O)cc3)on2)C1 (stereo not given),,,"0.731 µM [falling, partial curve, poor fit]"
CC(=O)NCCn1c(SCC(=O)NCCc2ccc(S(N)(=O)=O)cc2)nc2ccccc2c1=O,34.5%,"32.6 µM [rising, single point]",
COc1ccccc1N1CCN(C(=O)Nc2cccc(Cl)c2)CC1,114%,"9.2 µM [rising, partial curve]","13 µM [rising, partial curve]"
COc1ccc(OC)c(N/C=C2/CCCCC2=O)c1,15.5%,,"29.1 µM [rising, single point]"
COc1ccc(C(=O)N/C(N)=N/c2nc3ccccc3o2)cc1,-41.2%,"11.6 µM [falling, partial curve]","16.4 µM [falling, single point]"

# Shown with bars between the fields: five of the compounds above.
Compound | cell number change | AC50 [1] | AC50 [2]
Cc1ccc(C)c(S(=O)(=O)NCc2ccc(C(=O)N3CCOCC3)cc2)c1 | 0.867% |  | 29.1 µM [falling, single point]
CC1(C)CC(NC(=S)NCc2ccc3c(c2)OCO3)CC(C)(C)N1 | -20.8% | 0.164 µM [falling, full curve, poor fit] | 10.3 µM [falling, single point]
CCOc1cc(/C=N/NC(=O)CSc2cccc3cccnc23)ccc1O | 24.2% |  | 
CNc1oc(-c2ccc(Cl)cc2)nc1P(=O)(c1ccccc1)c1ccccc1 | -35.2% | 29.1 µM [falling, single point] | 29.1 µM [falling, single point]
COc1ccccc1N1CCN(C(=O)Nc2cccc(Cl)c2)CC1 | 114% | 9.2 µM [rising, partial curve] | 13 µM [rising, partial curve]

# Further results:

Compound,cell number change,AC50 [1],AC50 [2]
O=C(COc1ccc(S(=O)(=O)N2CCOCC2)cc1)Nc1ccc(Cl)c(C(F)(F)F)c1,-27%,,"2.06 µM [rising, single point]"
O=C(CCn1c(=O)[nH]c2ccsc2c1=O)N1CCN(c2ccc([N+](=O)[O-])cc2)CC1,24.8%,,"29.1 µM [falling, single point]"
CCSc1nnc(NC(=O)CN2C(=O)C3CC=CCC3C2=O)s1 (stereo not given),-22.2%,,"0.00461 µM [falling, full curve, poor fit]"
Cn1c(-n2c(CCN3C(=O)c4ccccc4C3=O)nc3ccccc3c2=O)nc2ccccc21,28.2%,,"0.517 µM [rising, partial curve, poor fit]"
COc1cccc(Nc2ncnc3onc(-c4ccccc4OC)c23)c1,-0.898%,,"14.6 µM [rising, partial curve]"
Cc1cc(C)c(S(=O)(=O)Nc2nnc(C(C)C)s2)c(C)c1,15.8%,,
COC(=O)c1ccc(CSc2nnc(-c3ccc4c(c3)OCO4)n2-c2ccccc2)o1,-2.6%,,
CCOC(=O)c1cc(-c2ccc(/C=C3/C(=O)N(c4ccc(C(=O)O)cc4)N=C3C)o2)ccc1Cl,-30.6%,"11.6 µM [falling, partial curve, poor fit]",
O=C(CN(C1CCCCC1)S(=O)(=O)c1ccc(F)cc1)NC1CC1,-10.5%,,"0.164 µM [rising, full curve, poor fit]"
COc1cc2c(C(=O)OCCN(C)C)c(CSc3ccccc3)n(C)c2cc1Br,3.36%,"3.66 µM [rising, single point]",
CCOC(=O)/C(=C/c1cn(C)c2ccccc12)NC(=O)c1ccccc1,19.4%,"1.84 µM [rising, partial curve]","1.64 µM [rising, partial curve]"
CS(=O)(=O)N1CCN=C1SCc1cccc(F)c1,4.25%,,"0.461 µM [rising, single point]"
CCOC(=O)c1c(C)[nH]c(C=O)c1Cc1cccc(Cl)c1,-27.2%,"0.00411 µM [falling, full curve, poor fit]",
COc1ccc(C(=O)N2CCc3ccc(NC(=O)c4ccccn4)cc3C2)cc1F,,,"1.84 µM [falling, full curve]"
N#Cc1nc(COc2cccc(Cl)c2)oc1NCc1ccco1,,,"0.13 µM [rising, single point]"
Cc1ccc(-n2nc(C(=O)O)cc2-c2ccccc2)cc1,-7.32%,,
CN1CCN(C(=O)c2ccc(Cl)c(S(=O)(=O)N3CCCCC3)c2)CC1,-21.9%,,"23.1 µM [falling, single point]"
CC1(C)Oc2ccc(C(=O)N3CCCC3)cc2N(CC(=O)NCc2ccccc2)C1=O,74.3%,"18.4 µM [rising, single point]",
CCOC(=O)c1cnn(-c2ccccn2)c1N,-22.3%,,"0.92 µM [rising, full curve]"
